Among the data in PMC12541429 are binding values, retold here.

The target of the experiment is T1, GFP-EFCAB10 (EF-hand calcium-binding domain protein 10) expressed in mEPCs (mouse) (UniProt Q9D581).
T1 sequence: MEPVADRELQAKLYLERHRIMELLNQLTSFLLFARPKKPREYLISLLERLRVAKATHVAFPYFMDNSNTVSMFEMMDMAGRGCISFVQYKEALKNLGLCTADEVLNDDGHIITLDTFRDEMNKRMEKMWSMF
Nature of the experiment: affinity purification with mass spectrometry; immunoprecipitation of GFP-EFCAB10 from lentivirus-infected cultured mEPCs, followed by mass spectrometry (IP-MS).

Results are given in words; binding and its absence hold for the method and conditions named. Binding seen in cells or lysates may run through a third protein. A yes stands for co-enrichment or nearness to the bait. Other partners may have been found. Where a sequence is shown, tags or fusion partners need not be part of it.

B1: radial spoke head protein 3 homolog B (RSPH3B), endogenous in mEPCs (protein, UniProt Q9DA80 1-389)
chain: MTDRNPRTAEASGLYTYSSRPRAVACQRRRHRDSILQPVEEPMSYGNIMYDRRVIRGNTYALPTGQVPGQPDPLELQRQQQARRRALARKRAQEQLKPRTPEPVEGRKHVDIQTELYLEEIADRIVEVDMECQTDAFLDRPPTPLFIPAKTGKDVATQILGGELFDFDLEVKPMLEVLVGKTIEQSLLEVMEEEELANLRARQYAYEEIRNVELAEVQRLEEQERRHREEKERRKKQQWEIVHKRNETLQKISALIFARQYLANLLPSVFDKLRNSGFFYDPIERDIEVGFLPWLMNEVEKSMEHSMVGRTVLDMLIRDVVERRINDYEHKEAMPPGQKTNVINGPNTVTDPSVTTLHTQKPVLDRVSSQPAPSQERKPVEEGGHLMAE
As for B1, the binding entry is reported as “binds”.

B2: AK8 (adenylate kinase 8), endogenous in mEPCs (protein, UniProt Q32M07 1-479)
chain: MDATTAPHRIPPEMPQYGEDYYIFEMMQNMLEQLLIHQPEDPISFMITHLRRNNDNVPKVVILGPPASGKTTIAMWLCKHLNSNLITKESLLEREFSRLSVEAKSYYQVYKKIPNSILVSLVQERLNEDDCLRKGWILDGIPERREQALMIQTLGLAPKHVIVLNAPDTVLIERNVGKRIDPVTGEIYHTTFDWPPEPEIQNRLRQPEGISEIETAKKLLEYHRHIIRILPSYPKILKTISSDQPCVDVFYQALTYVQSGHRCNAPFTPKVLLCGPLGSGKRLQATLLAQKYGLVNISCGQLLKEAVAAKSSFGELIQPFFEKRMTVPDSIITKVLADRMEQQDCIQKGWVLHGFPRDLDQARMLNSMGYNPNRVFFLSVPLDSILERLTLRRTDPVTGERFHLMYKPPPTIEVQVRLLQNPKDSEEYIKLQTDLFYRNSGDLEQYYDRAIIVNGDQDPYTVFEYIESGIINPLPRKVT
As for B2, the binding result was “binds”.

B3: radial spoke head protein 4 homolog A (RSPH4A), endogenous in mEPCs (protein, UniProt Q8BYM7 1-716)
chain: MENSTSLKQEKENQEPGEAERLWQGESDVSPQEPGPPSPEYREEEQRTDTEPAPRMSPSWSHQSRVSLSTGDLTAGPEVSSSPPPPPLQFHSTPLNTETTQDPVAASPTEKTANGIADTGTPYSDPWESSSAAKQSTSHYTSHAEESTFPQSQTPQPDLCGLRDASRNKSKHKGLRFDLLQEEGSDSNCDPDQPEVGASEAAQSMLEVAIQNAKAYLLSTSSKSGLNLYDHLSKVLTKILDERPADAVDIIENISQDVKMAHFNKKLDTLHNEYEMLPAYEIAETQKALFLQGHLEGADSELEEEMAESSLPNVMESAYYFEQAGVGLGTDETYRVFLALKQLTDTHPIQRCRFWGKILGLEMNYIVAEVEFRDGEDEEEVEEEGIAEERDNGGSEAGEEEEEELPKSLYKAPQVIPKEESRTGANKYVYFVCNVPGRPWVRLPSVTPAQIVTARKIKKFFTGRLDAAVISYPPFPGNESNYLRAQIARISAGTHVSPLGFYQFGEEEGEEEEVEGGRDSYEENPDFEGIQVIDLVESLSNWVHHVQYILPQGRCNWFNPIQKDEDEEEEEEEDEEKGEEPDYIEQEVGPPLLTPISEDLGIQNIPSWTTQLSSNLIPQYAIAVLRSNLWPGAYAFSNGKKFENFYIGWGHKYCVENYTPPSPPPVYQEYPSGPEITEMNDPSVEEEQAFRMTQEPVALSTEENEGTEDEDEDDED
For the molecule B3, the binding result was “binds”.
